# Measurements: PMC5442324, “Zinc is a potent and specific inhibitor of IFN-λ3 signalling” (Nature Communications, 2017)
# No constants are given. Whether binding was seen depends on the method and setting. Binding seen in cells or lysates may run through a third protein. Some entries that bind do so weakly or less than the wild type.
# T1: recombinant human IFN-λ3 (human) (UniProt Q8IZI9)
# T1 sequence: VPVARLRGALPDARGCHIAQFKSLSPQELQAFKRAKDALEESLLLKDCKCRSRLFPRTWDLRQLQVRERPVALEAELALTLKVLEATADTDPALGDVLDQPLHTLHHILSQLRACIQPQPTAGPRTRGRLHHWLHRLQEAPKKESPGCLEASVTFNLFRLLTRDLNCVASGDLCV
# T2: IFNL receptor 1 (IFNLR1) (human (endogenous in Huh-7)) (UniProt Q8IU57)
# T2 sequence: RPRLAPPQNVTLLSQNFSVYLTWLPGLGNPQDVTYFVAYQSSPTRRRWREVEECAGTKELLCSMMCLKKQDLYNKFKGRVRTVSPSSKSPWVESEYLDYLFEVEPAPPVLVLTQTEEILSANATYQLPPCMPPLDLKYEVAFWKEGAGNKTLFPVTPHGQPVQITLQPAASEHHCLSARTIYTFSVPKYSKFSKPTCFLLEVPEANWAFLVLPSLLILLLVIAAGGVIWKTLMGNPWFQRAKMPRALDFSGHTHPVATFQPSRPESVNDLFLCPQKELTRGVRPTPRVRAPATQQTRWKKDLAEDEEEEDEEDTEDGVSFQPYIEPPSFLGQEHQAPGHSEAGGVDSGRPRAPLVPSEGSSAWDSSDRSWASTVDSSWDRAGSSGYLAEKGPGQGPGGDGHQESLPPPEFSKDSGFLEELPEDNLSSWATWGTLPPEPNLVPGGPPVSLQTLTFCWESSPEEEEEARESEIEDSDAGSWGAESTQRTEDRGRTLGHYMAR
# Experiments:
# [1] = target: T1, recombinant human IFN-λ3 (human); test: co-IP; Huh-7 lysate (150 mM NaCl, 50 mM Tris-HCl pH 7.4, 1% NP-40, 0.25% deoxycholate) with recombinant IFN-λ3 100 ng/ml alone; precipitated with anti-IFN-λ3 antibody and protein G beads, 4 °C; IFN-λR1 blotted; only the target purified
# [2] = target: T2, IFNL receptor 1 (IFNLR1) (human (endogenous in Huh-7)); test: co-IP; Huh-7 lysate (150 mM NaCl, 50 mM Tris-HCl pH 7.4, 1% NP-40, 0.25% deoxycholate) with recombinant IFN-λ3 100 ng/ml alone; precipitated with anti-IFN-λR1 antibody and protein G beads, 4 °C; IFN-λ3 blotted; only the binder purified
binding [1],binding [2],Binder
binds,–,"IFNL receptor 1 (IFNLR1) (receptor, UniProt Q8IU57 21-520) RPRLAPPQNVTLLSQNFSVYLTWLPGLGNPQDVTYFVAYQSSPTRRRWREVEECAGTKELLCSMMCLKKQDLYNKFKGRVRTVSPSSKSPWVESEYLDYLFEVEPAPPVLVLTQTEEILSANATYQLPPCMPPLDLKYEVAFWKEGAGNKTLFPVTPHGQPVQITLQPAASEHHCLSARTIYTFSVPKYSKFSKPTCFLLEVPEANWAFLVLPSLLILLLVIAAGGVIWKTLMGNPWFQRAKMPRALDFSGHTHPVATFQPSRPESVNDLFLCPQKELTRGVRPTPRVRAPATQQTRWKKDLAEDEEEEDEEDTEDGVSFQPYIEPPSFLGQEHQAPGHSEAGGVDSGRPRAPLVPSEGSSAWDSSDRSWASTVDSSWDRAGSSGYLAEKGPGQGPGGDGHQESLPPPEFSKDSGFLEELPEDNLSSWATWGTLPPEPNLVPGGPPVSLQTLTFCWESSPEEEEEARESEIEDSDAGSWGAESTQRTEDRGRTLGHYMAR"
–,binds,"recombinant human IFN-λ3 (ligand, UniProt Q8IZI9 22-196, looked up, IFN-λ3 (interferon lambda 3), human, recombinant, R&D Systems; (Cys169); also called interferon lambda 3; IFNL3; source: bought: R&D Systems) VPVARLRGALPDARGCHIAQFKSLSPQELQAFKRAKDALEESLLLKDCKCRSRLFPRTWDLRQLQVRERPVALEAELALTLKVLEATADTDPALGDVLDQPLHTLHHILSQLRACIQPQPTAGPRTRGRLHHWLHRLQEAPKKESPGCLEASVTFNLFRLLTRDLNCVASGDLCV"
